Publication PMC8660639
These are yes or no findings as the source states them, for the method shown. In cells and extracts the contact can be indirect. Some binding calls cover weakened binding; strength is not graded here.

Amino acid sequences for entries named in this document (tags omitted).
UniProt P29590: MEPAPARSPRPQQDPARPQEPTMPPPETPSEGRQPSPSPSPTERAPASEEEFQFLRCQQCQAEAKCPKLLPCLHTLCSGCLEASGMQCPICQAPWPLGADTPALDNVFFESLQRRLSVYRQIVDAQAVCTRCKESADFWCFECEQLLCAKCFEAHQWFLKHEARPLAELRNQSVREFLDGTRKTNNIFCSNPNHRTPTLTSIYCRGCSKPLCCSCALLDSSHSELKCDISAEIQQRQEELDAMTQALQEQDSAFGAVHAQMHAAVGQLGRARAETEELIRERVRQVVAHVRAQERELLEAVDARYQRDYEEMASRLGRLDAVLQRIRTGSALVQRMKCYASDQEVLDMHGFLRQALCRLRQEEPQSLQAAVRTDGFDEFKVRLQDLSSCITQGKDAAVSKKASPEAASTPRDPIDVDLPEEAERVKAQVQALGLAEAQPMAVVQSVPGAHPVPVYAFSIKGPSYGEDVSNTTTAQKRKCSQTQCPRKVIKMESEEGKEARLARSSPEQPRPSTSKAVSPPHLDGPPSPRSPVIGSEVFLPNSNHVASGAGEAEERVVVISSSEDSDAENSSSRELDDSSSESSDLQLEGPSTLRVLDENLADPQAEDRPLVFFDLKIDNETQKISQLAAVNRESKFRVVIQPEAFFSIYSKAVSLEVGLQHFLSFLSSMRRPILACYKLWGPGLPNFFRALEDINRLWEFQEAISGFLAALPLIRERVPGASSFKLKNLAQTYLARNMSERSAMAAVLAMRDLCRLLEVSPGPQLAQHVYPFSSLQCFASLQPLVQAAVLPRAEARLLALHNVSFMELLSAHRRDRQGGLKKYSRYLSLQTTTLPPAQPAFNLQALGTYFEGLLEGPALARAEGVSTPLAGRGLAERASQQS
UniProt Q5JVF3: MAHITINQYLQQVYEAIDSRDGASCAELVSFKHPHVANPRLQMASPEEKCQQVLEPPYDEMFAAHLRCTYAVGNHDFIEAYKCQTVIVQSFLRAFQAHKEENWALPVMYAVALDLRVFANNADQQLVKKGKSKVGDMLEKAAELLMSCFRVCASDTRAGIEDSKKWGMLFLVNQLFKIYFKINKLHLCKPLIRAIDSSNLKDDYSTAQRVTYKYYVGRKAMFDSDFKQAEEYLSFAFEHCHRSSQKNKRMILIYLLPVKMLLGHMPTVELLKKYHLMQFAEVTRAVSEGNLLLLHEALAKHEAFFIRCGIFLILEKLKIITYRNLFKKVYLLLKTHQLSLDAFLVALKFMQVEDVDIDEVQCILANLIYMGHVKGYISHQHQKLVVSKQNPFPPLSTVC
UniProt P35222: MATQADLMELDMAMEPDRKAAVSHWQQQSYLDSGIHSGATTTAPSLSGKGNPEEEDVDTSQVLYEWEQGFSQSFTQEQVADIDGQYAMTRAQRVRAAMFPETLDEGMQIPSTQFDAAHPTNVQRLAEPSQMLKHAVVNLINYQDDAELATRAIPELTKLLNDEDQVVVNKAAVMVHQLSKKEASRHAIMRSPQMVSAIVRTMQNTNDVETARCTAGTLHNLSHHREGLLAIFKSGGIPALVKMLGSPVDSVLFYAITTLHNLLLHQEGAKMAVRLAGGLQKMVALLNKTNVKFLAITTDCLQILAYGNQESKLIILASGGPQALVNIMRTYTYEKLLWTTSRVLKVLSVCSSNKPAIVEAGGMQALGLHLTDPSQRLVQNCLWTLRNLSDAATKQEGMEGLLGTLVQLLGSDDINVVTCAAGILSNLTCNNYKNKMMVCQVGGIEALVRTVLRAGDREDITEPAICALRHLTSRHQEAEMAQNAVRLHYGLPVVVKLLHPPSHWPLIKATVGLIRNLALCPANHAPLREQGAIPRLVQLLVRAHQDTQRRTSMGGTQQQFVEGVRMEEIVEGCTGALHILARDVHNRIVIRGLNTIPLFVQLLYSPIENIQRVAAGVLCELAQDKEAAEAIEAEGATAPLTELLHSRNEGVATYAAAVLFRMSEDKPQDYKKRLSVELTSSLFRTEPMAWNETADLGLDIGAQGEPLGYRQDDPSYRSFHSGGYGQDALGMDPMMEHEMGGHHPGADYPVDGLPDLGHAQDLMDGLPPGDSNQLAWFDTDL

How the values were obtained:
[1] = biological target: Promyelocytic leukemia protein (PML) (human (endogenous in DLD1 and HCT116)) (UniProt P29590); experiment: co-IP; HCT116 and DLD1 cells transfected with pcDNA3.1 or pcDNA3.1-PCID2; CytoBuster lysate, 300 ug precleared lysate, protein G PLUS-Agarose overnight at 4 °C; IP with anti-PCID2 or anti-PML antibody, western blot
[2] = biological target: PCI domain containing 2 (PCID2) (human) (UniProt Q5JVF3); experiment: as above
[3] = biological target: β-catenin (human (endogenous in DLD1 and HCT116)) (UniProt P35222); experiment: co-IP; total protein of DLD1-vector, DLD1-PCID2, HCT116-shNC and HCT116-shPCID2 cells; IP with CTNNB1 antibody and protein G PLUS-Agarose overnight at 4 °C; western blot for PML

PCI domain containing 2 (PCID2) (from UniProt Q5JVF3 1-399)
binding [1]: binds

Promyelocytic leukemia protein (PML) (from UniProt P29590 1-882)
binding [2]: binds | binding [3]: binds
